Results deposited as PubChem BioAssay AID720505 (Drosophila RNAi Screening Center, 2013)

Aim: 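Fly regulators or components of the CRAC channel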 (primary screen)
Cell system: Drosophila S2R+ cells
Reagents: long dsRNA against Drosophila genes
Conditions: thapsigargin (2 µM) in calcium-free buffer to empty internal stores, then 2 mM calcium added back
Detection: 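Stores emptied by 2 µM thapsigargin without calcium, then 2 mM calcium re-added; fluo-4 fluorescence followed by FLIPR in 384-well plates, per-well averaged endpoint, raw; two screen passes, some wells retested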
Direction: calcium signal and retest calcium signal: higher = more calcium entry after store depletion
Rule for the call: 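Knock-downs counted as hits when calcium entry dropped relative to STIM1 positive and Rho1 negative controls present on each plate; roughly 1500 genes called, with reductions of differing size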
Calls: active = called as lowering calcium entry; inactive = not called
The screen tested about 20,000 reagents; below is a random part of those with a known target gene and a result. In the full data, about 2,100 (10%) were called active. 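Raw plate signals without normalisation; calls rest on control-based scores that were not deposited; replicate 2 separates called from uncalled poorly.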 Names joined by + are all predicted targets of the reagent. Not given: the amount of reagent, the time to read-out.

no.	target gene	DRSC id	calcium signal, replicate 1	calcium signal, replicate 2	retest calcium signal, replicate 1	retest calcium signal, replicate 2	Call
1	CG1213 (GeneID 40728)	DRSC12191	104	207			inactive
2	CG12071 (GeneID 43660)	DRSC14471	143	141			inactive
3	CG12071 (GeneID 43660)	DRSC22972	86.5	72.6			inactive
4	CR10102 (GeneID 12798454)	DRSC05963	83.3	103			inactive
5	Teh4 (GeneID 38501)	DRSC08457	77.3	87.5			inactive
6	CG13364 (GeneID 50364)	DRSC17898	54.5	142			active
7	CG13364 (GeneID 50364)	DRSC21263	134	83.7			inactive
8	heca (GeneID 43604)	DRSC16964	156	109			inactive
9	heca (GeneID 43604)	DRSC22990	109	120			inactive
10	scramb1 (GeneID 326186)	DRSC09724	111	112			inactive
11	scramb1 (GeneID 326186)	DRSC10667	77.6	98.4			active
12	scramb1 (GeneID 326186)	DRSC10668	127	98.6			inactive
13	Obp99d (GeneID 43496)	DRSC15046	187	154			inactive
14	bcn92 (GeneID 31186)	DRSC18741	85.6	126			inactive
15	mRpS9 (GeneID 40932)	DRSC12645					inactive
16	mRpS9 (GeneID 40932)	DRSC15456	136	182	6854	126	inactive
17	Ssl2 (GeneID 43424)	DRSC14395	173	85			inactive
18	Ssl2 (GeneID 43424)	DRSC22796	73.6	88.8			inactive
19	Awh (GeneID 38451)	DRSC08140	75.1	75.2			inactive
20	CG2901 (GeneID 31338)	DRSC18239	101	74.5			inactive
21	CG8613 (GeneID 36593)	DRSC07222	191	98.7			inactive
22	LIMK1 (GeneID 32207)	DRSC19811	116	117			inactive
23	BubR1 (GeneID 35522)	DRSC04838	135	175			inactive
24	CG13723 (GeneID 39925)	DRSC10052	88.7	154			inactive
25	CG9106 (GeneID 32454)	DRSC20154	92.5	102			inactive
26	can (GeneID 45432)	DRSC10664	137	110			inactive
27	Sdb (GeneID 36573)	DRSC06272	99.8	171			inactive
28	Sdb (GeneID 36573)	DRSC06273	103	146			inactive
29	Sdb (GeneID 36573)	DRSC07155	185	184			inactive
30	Or19b + Or19a	DRSC22604	112	187			inactive
31	CG31075 (GeneID 43244)	DRSC16016	188	163			inactive
32	CG8483 (GeneID 41623)	DRSC16430	135	157			inactive
33	cv (GeneID 44510)	DRSC17833	103	95.4			active
34	Cpr49Ac (GeneID 36348)	DRSC07199	205	162			inactive
35	lncRNA:CR32730 (GeneID 3772297)	DRSC22957	83	95.2			inactive
36	mib2 (GeneID 35170)	DRSC02623	119	133			inactive
37	eEFSec (GeneID 37444)	DRSC04571	127	96.2			inactive
38	CG4935 (GeneID 34955)	DRSC01924	97.3	85.9			inactive
39	CG13084 (GeneID 35229)	DRSC02188	144	98.5			inactive
40	pira (GeneID 32229)	DRSC19494	73.8	91.4			inactive
41	roq (GeneID 39818)	DRSC10227	158	89.7			inactive
42	or (GeneID 43943)	DRSC04329	134	242			inactive
43	CG14634 (GeneID 50366)	DRSC17944	130	185			inactive
44	Octbeta2R (GeneID 41549)	DRSC15350	193	111			inactive
45	Octbeta2R (GeneID 41549)	DRSC16165	170	98.4			inactive
46	Osi13 (GeneID 40769)	DRSC12281	104	116			inactive
47	CG31226 (GeneID 318633)	DRSC21724	130	111			inactive
48	Cpr100A (GeneID 43657)	DRSC14465	179	182			inactive
49	CG12848 (GeneID 50139)	DRSC04128	173	183			inactive
50	RpL22 (GeneID 31022)	DRSC18707	6114	79.6	147	116	active
51	RpL22 (GeneID 31022)	DRSC22819	55.4	78.8			active
52	cup (GeneID 33934)	DRSC03516	138	213			inactive
53	CG6878 (GeneID 39656)	DRSC10737	101	135			inactive
54	Cog7 (GeneID 43547)	DRSC16331	157	129			inactive
55	CG6136 (GeneID 41877)	DRSC15975	97	105			inactive
56	CanA1 (GeneID 43670)	DRSC16600	176	129			inactive

Reformatted: entries from further up
{"target gene": "CG1213 (GeneID 40728)", "DRSC id": "DRSC12191", "calcium signal, replicate 1": 104, "calcium signal, replicate 2": 207, "Call": "inactive"}
{"target gene": "CG12071 (GeneID 43660)", "DRSC id": "DRSC14471", "calcium signal, replicate 1": 143, "calcium signal, replicate 2": 141, "Call": "inactive"}
{"target gene": "CG12071 (GeneID 43660)", "DRSC id": "DRSC22972", "calcium signal, replicate 1": 86.5, "calcium signal, replicate 2": 72.6, "Call": "inactive"}
{"target gene": "CR10102 (GeneID 12798454)", "DRSC id": "DRSC05963", "calcium signal, replicate 1": 83.3, "calcium signal, replicate 2": 103, "Call": "inactive"}
{"target gene": "Teh4 (GeneID 38501)", "DRSC id": "DRSC08457", "calcium signal, replicate 1": 77.3, "calcium signal, replicate 2": 87.5, "Call": "inactive"}
